Data as given in PubChem BioAssay AID602196 (INSERM, 2012).
Test: 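Knock-downs that protect lung cancer cells from cisplatin or sensitise them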. Cells: human A549 lung cancer cells. Reagent: siRNA pair against human genes. Duration: 48 h transfection before cisplatin; time from cisplatin to read-out not stated. Challenge: cisplatin at a dose killing half of control-siRNA cells; exact dose and duration not given. Read-out: 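Shift in cisplatin death relative to control siRNA, from -50 (all cells die) to +50 (no cells die); siRNAs harmful on their own scored 0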. Direction: two-siRNA summed score (-2 to +2): higher = both siRNAs protect from cisplatin killing; -2 means both sensitise. Call rule: 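siRNAs harmful alone (LDH or WST-1) get 0; others get +1 for less and -1 for more cisplatin killing; genes are active when the two siRNAs give the same sign, summing to ±2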. Meaning of the calls: active = both siRNAs shift cisplatin killing the same way; inactive = no consistent shift, or siRNA harmful alone.
In all, the deposit lists about 23,000 reagents; below is an unselected part. Of all reagents, 455 (2%) are marked active. 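Active includes both protection and sensitisation; some change values fall well beyond the stated -50 to +50 range.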 Not all columns of the deposit are shown. Not given: the amount of reagent.

ALPI → two-siRNA summed score (-2 to +2): 1; Outcome: inactive
OR5A1 → two-siRNA summed score (-2 to +2): 0; Outcome: inactive
LOC339771 → two-siRNA summed score (-2 to +2): 0; Outcome: inactive
PAX6 → two-siRNA summed score (-2 to +2): 0; Outcome: inactive
AKR1B10 → two-siRNA summed score (-2 to +2): 0; Outcome: inactive
CSPP1 → two-siRNA summed score (-2 to +2): 0; Outcome: inactive
SGMS1 → two-siRNA summed score (-2 to +2): -1; Outcome: inactive
CORO2A → two-siRNA summed score (-2 to +2): 0; Outcome: inactive
MOG → two-siRNA summed score (-2 to +2): 0; Outcome: inactive
LOC392242 → two-siRNA summed score (-2 to +2): -1; Outcome: inactive
TMEM217 → two-siRNA summed score (-2 to +2): -1; Outcome: inactive
ZNF438 → two-siRNA summed score (-2 to +2): 0; Outcome: inactive
LINC01565 → two-siRNA summed score (-2 to +2): 0; Outcome: inactive
EIF2A → two-siRNA summed score (-2 to +2): 0; Outcome: inactive
KIAA0753 → two-siRNA summed score (-2 to +2): 2; Outcome: active
BECN1 → two-siRNA summed score (-2 to +2): 0; Outcome: inactive
FBN2 → two-siRNA summed score (-2 to +2): -1; Outcome: inactive
H2AC6 → two-siRNA summed score (-2 to +2): 0; Outcome: inactive
IL6 → two-siRNA summed score (-2 to +2): 1; Outcome: inactive
FLJ40411 → two-siRNA summed score (-2 to +2): 0; Outcome: inactive
RHOB → two-siRNA summed score (-2 to +2): 0; Outcome: inactive
LOC343221 → two-siRNA summed score (-2 to +2): -1; Outcome: inactive
MOCS2 → two-siRNA summed score (-2 to +2): -1; Outcome: inactive
FBXO17 → two-siRNA summed score (-2 to +2): 0; Outcome: inactive
UBA2 → two-siRNA summed score (-2 to +2): -1; Outcome: inactive
PABPN1 → two-siRNA summed score (-2 to +2): 0; Outcome: inactive
LOC285331 → two-siRNA summed score (-2 to +2): 1; Outcome: inactive
LOC400733 → two-siRNA summed score (-2 to +2): 0; Outcome: inactive
DCTN5 → two-siRNA summed score (-2 to +2): 0; Outcome: inactive
FOLH1B → two-siRNA summed score (-2 to +2): 1; Outcome: inactive
AP3S1 → two-siRNA summed score (-2 to +2): 0; Outcome: inactive

In a second layout: results already given
target | two-siRNA summed score (-2 to +2) | Outcome
FLJ40411 | 0 | inactive
RHOB | 0 | inactive
LOC343221 | -1 | inactive
MOCS2 | -1 | inactive
